Laboratory results published in paper PMC11884560.
No constants are given. Whether binding was seen depends on the method and setting. Binding seen in cells or lysates may run through a third protein. Some entries that bind do so weakly or less than the wild type. Where a sequence is shown, tags or fusion partners need not be part of it.

Chains of the proteins cited; added tags and fusions are not shown. Residues count along the entry.
UniProt Q14126, residues 50-1118: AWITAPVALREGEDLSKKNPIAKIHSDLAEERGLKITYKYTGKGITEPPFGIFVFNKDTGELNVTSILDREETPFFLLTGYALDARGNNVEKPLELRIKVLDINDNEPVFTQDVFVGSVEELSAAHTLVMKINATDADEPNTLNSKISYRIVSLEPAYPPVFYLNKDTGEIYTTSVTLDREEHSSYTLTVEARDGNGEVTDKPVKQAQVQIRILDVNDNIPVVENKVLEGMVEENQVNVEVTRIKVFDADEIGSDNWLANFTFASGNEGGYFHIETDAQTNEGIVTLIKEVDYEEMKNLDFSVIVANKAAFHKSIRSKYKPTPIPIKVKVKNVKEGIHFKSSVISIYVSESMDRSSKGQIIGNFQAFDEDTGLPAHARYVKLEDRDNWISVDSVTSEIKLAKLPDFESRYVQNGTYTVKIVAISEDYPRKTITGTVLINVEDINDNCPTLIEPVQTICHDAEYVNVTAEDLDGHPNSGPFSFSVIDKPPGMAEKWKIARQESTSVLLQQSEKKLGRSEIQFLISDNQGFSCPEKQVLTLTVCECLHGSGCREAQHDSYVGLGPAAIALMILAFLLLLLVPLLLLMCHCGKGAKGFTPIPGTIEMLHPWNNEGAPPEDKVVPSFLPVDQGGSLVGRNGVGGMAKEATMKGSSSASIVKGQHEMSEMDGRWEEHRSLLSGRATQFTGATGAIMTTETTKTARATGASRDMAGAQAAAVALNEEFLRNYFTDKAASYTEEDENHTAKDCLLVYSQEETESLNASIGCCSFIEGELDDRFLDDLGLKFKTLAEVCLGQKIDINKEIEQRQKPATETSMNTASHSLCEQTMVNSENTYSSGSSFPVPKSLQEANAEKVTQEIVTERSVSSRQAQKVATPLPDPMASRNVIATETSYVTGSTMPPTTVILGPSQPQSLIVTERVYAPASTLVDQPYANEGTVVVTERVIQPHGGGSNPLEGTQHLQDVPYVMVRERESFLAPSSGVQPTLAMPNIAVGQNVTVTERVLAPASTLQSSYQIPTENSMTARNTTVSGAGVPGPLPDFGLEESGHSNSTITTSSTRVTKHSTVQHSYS

Biological target: T1, Siglec‐9‐Fc (human) (UniProt Q9Y336)
T1 sequence: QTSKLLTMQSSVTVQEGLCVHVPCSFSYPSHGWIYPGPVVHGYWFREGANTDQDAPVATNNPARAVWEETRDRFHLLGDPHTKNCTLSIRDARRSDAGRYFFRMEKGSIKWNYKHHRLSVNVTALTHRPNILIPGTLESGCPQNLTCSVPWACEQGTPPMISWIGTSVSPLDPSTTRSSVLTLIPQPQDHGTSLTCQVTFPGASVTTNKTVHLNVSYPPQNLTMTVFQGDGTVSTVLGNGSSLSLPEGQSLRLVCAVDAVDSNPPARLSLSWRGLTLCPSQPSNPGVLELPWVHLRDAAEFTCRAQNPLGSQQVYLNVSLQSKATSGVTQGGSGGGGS
Test: pull-down; purified S9Fc, mS9Fc or Siglec‐7 as bait; lysate of HEK293T cells overexpressing full‐length DSG2 or DSG2‐5Q, also with tunicamycin or neuraminidase treatment; western blot; only the target purified

binding: binds
Substance: Desmoglein 2, full length, overexpressed in HEK293T (from UniProt Q14126 50-1118)
